According to PubChem BioAssay AID1347075 (National Center for Advancing Translational Sciences (NCATS), 2019):
The whole screen tested about 400,000 compounds, of which about 5,500 (1.4%) were called active. Inconclusive results, whose numbers are uncertain, are shown with a selection of clear calls. Calls follow the shape of the dose curve; as a rule, active = well fitted cell-killing curve with a large enough effect; inconclusive = small, poorly fitted or top-dose-only effect, or effect the other way; inactive = flat fitted curve, though single readings scatter. Where the call is inconclusive, the potency comes from a doubtful curve fit.

Test: qHTS assay for MDR1-selective chemotherapeutics: Primary screen using the parental adenocarcinoma cell KB-3-1; also: nearly all actives have a fitted effect of over 60% in size
Settings: KB-3-1 viability, CellTiter-Glo ATP luminescence, 72 h; activity change, negative = cytotoxic: at 46.1 µM (top of the series)
In short: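 Cytotoxicity measured as CellTiter-Glo luminescence after 72 h at 37 C. Compound titrations were pinned onto drug-naive KB-3-1 parental adenocarcinoma cells grown in DMEM with 10% FBS, and normalized data fitted to concentration-response curves.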
% is scaled to controls: 0 for no effect and ±100 for the full control effect; potency is read from the fitted curve at half-maximal effect.

Question: Which Potency does the source give for `Cn1c(N)c(C(=O)CSc2nn(-c3ccccc3)c(=S)s2)c(=O)n(C)c1=O` here?
Answer: inconclusive: 18.4 µM [cytotoxic, single point]

Question: Which “activity change, negative = cytotoxic” value does the source give for `Cn1c(=O)c2nc(-c3ccccc3)oc2c2ccccc21` here?
Answer: inactive: -5.23%

Question: For `CC(C)C[C@@H]1NC(=O)[C@H](C(C)C)NC(=O)c2cc([N+](=O)[O-])cc(I)c2NCC[C@@H](C(N)=O)NC1=O`, which Potency is on record?
Answer: inconclusive: 16.4 µM [rising, partial curve, poor fit]

Question: With `CCN(CC)CCCN=C1N[C@@H](c2cccc(F)c2)C(C(=O)OC)=C(C)N1Cc1ccccc1` as the compound, how does the Potency read?
Answer: inconclusive: 18.4 µM [cytotoxic, partial curve]

Question: For `Cn1c(-c2ccccc2F)cc2onc(-c3ccccc3)c2c1=O`, which Potency is on record?
Answer: inconclusive: 29.1 µM [cytotoxic, single point]

Question: For `c1ccc(CNc2nc(-c3ccccn3)nc3ccccc23)cc1`, which Potency is on record?
Answer: active: 16.4 µM

Question: With `O=C(NCC(c1cccs1)N1CCOCC1)C1CCN(S(=O)(=O)c2cccc(C(F)(F)F)c2)CC1` (configuration not stated) as the compound, how does the Potency read?
Answer: inconclusive: 16.4 µM [rising, single point]

Question: For `Cc1cccc(/C=C/c2onc(C)c2S(=O)(=O)N2CCC(C(=O)N3CCCCC3)CC2)c1`, which Potency is on record?
Answer: inactive

Question: For `O=C(Nc1ccccc1N1CCN(C(=O)c2ccccc2)CC1)c1ccco1`, which “activity change, negative = cytotoxic” value is on record?
Answer: inactive: 5.81%

Question: With `COc1ccc(NC(=O)CCc2nc3ccccc3s2)c(OC)c1` as the compound, how does the activity change, negative = cytotoxic read?
Answer: inconclusive: -18.1%

Question: For `C#CCOCCOCCOCCNc1nc(N2CCN(C(=O)CCCCCCCCCCNC(=O)[C@@H](CCSC)n3cc(CCO)nn3)CC2)nc(N2CCN(C(=O)CCCCCCCCCCNC(=O)[C@H](CO)n3cc(CCCCCN)nn3)CC2)n1`, which “activity change, negative = cytotoxic” value is on record?
Answer: inactive: -2.42%

Question: For `CCCN(CCC)CCCNC(=O)c1cn(CC)c2ccc(S(=O)(=O)N3CCOCC3)cc2c1=O`, which Potency is on record?
Answer: inconclusive: 29.1 µM [cytotoxic, partial curve, poor fit]

Question: With `CC(=O)Nc1ccc(NC(=O)C(C)c2cccc(C(=O)c3ccccc3)c2)cc1` (configuration not stated) as the compound, how does the “activity change, negative = cytotoxic” value read?
Answer: inactive: -1.54%

Question: With `CCC(C)c1ccc(NC(=O)C2CCN(c3ncccn3)CC2)cc1` (configuration not stated) as the compound, how does the Potency read?
Answer: inconclusive: 20.6 µM [cytotoxic, single point]

Question: With `COc1cc(Br)cc(C2C3=C(CCCC3=O)N(c3ccc(F)cc3)C3=C2C(=O)CCC3)c1O` as the compound, how does the Potency read?
Answer: inconclusive: 29.1 µM [cytotoxic, single point]

Question: With `CCC(CC)c1nnc(NC(=O)Oc2ccccc2)s1` as the compound, how does the “activity change, negative = cytotoxic” value read?
Answer: inactive: 0.735%

Question: With `O=c1[nH]c(CSc2ncccn2)nc2c1cnn2-c1ccccc1` as the compound, how does the “activity change, negative = cytotoxic” value read?
Answer: inactive: -0.0561%

Question: Which Potency does the source give for `Cc1ccc([N+](=O)[O-])cc1S(=O)(=O)Nc1ccc(-c2ccc(N3CCCC3)nn2)cc1` here?
Answer: inconclusive: 23.1 µM [cytotoxic, partial curve, poor fit]

Question: For `Cc1ccc2c(c1)C(c1ccccc1)N(C(=O)c1c(F)cccc1Cl)CC(=O)N2` (configuration not stated), which Potency is on record?
Answer: inconclusive: 3.66 µM [cytotoxic, full curve, poor fit]

Question: With `Cc1ccc(CN2CCN(/N=C/c3sccc3C)CC2)c(C)c1` as the compound, how does the “activity change, negative = cytotoxic” value read?
Answer: inactive: -28.8%

Question: With `O=[N+]([O-])c1ccc(COc2ccccc2CN2CCCC2)cc1` as the compound, how does the Potency read?
Answer: inconclusive: 0.366 µM [rising, full curve]

Question: For `CNC(=S)N/N=C/c1ccc(-c2cccc(C(=O)O)c2)o1`, which Potency is on record?
Answer: active: 14.6 µM

Question: Which “activity change, negative = cytotoxic” value does the source give for `O=C(CSC1=Nc2ccccc2N=C(c2ccc(F)cc2)C1)Nc1ccccc1` here?
Answer: inactive: -5.84%

Question: With `O=Cc1cccc(Oc2ncccn2)c1` as the compound, how does the “activity change, negative = cytotoxic” value read?
Answer: inactive: 3.61%

Question: With `Cc1[nH]n(-c2ccc(Cl)cc2)c(=O)c1C(=O)c1ccccc1` as the compound, how does the Potency read?
Answer: active: 13 µM

Question: For `Cc1ccc(-n2c(=O)c3c(c4cc(C)ccc4n3C)n(CC(=O)N3CCCC3)c2=O)cc1`, which activity change, negative = cytotoxic is on record?
Answer: inconclusive: -5.67%

Question: Which Potency does the source give for `O=C(NC1CCCCC1)N1CCCC(CNS(=O)(=O)Cc2ccccc2)C1` (configuration not stated) here?
Answer: inconclusive: 14.6 µM [rising, partial curve, poor fit]

Question: With `CC(Oc1cccc2ccccc12)C(=O)N/N=C/c1cccnc1` (configuration not stated) as the compound, how does the “activity change, negative = cytotoxic” value read?
Answer: inactive: -0.0509%

Question: Which Potency does the source give for `CCOC(=O)Nc1cc(OC)cc2ccc(C)nc12` here?
Answer: inconclusive: 29.1 µM [rising, single point]

Question: For `CCOc1ccc(NS(=O)(=O)c2ccc3c(c2)CCCN3C(=O)C2CCC2)cc1`, which “activity change, negative = cytotoxic” value is on record?
Answer: inactive: -6.81%

Question: With `CCCC1NC(=O)c2cc3ccccc3cc2-n2c1nc1ccc(F)cc1c2=O` (configuration not stated) as the compound, how does the Potency read?
Answer: inconclusive: 25.9 µM [cytotoxic, partial curve, poor fit]

Question: For `Cc1ccc(NC(=O)c2cccc(NC(=O)CC3SC(N4CCCCC4)=NC3=O)c2)nc1` (configuration not stated), which Potency is on record?
Answer: inconclusive: 16.4 µM [rising, single point]

Question: Which “activity change, negative = cytotoxic” value does the source give for `CC(=O)c1ccc(S(=O)(=O)NCCC(=O)NC(C)c2ccncc2)cc1` (configuration not stated) here?
Answer: inactive: 4.25%

Question: For `CCOC(=O)Cc1nnc(NC(=O)c2ccccc2OC)s1`, which “activity change, negative = cytotoxic” value is on record?
Answer: inactive: -7.32%

Question: With `COc1ccc(C(=O)Nc2ccccc2C(=O)N(Cc2ccco2)C(C(N)=O)C(C)C)cc1` (configuration not stated) as the compound, how does the Potency read?
Answer: inconclusive: 29.1 µM [cytotoxic, single point]

Question: Which Potency does the source give for `O=C(Nc1ccc2c(c1)OCCO2)C(CCc1ccccc1)N1CCN(C/C=C/c2ccccc2)CC1` (configuration not stated) here?
Answer: inconclusive: 29.1 µM [cytotoxic, single point]

Question: For `CCN(Cc1ccccc1)S(=O)(=O)c1ccc(C(=O)Nc2nnc(-c3ccccc3OC)o2)cc1`, which Potency is on record?
Answer: inconclusive: 29.1 µM [cytotoxic, single point]

Question: With `Cc1ccc(NC(=O)c2cc(S(=O)(=O)NCCc3ccc(Cl)cc3)ccc2F)cc1` as the compound, how does the Potency read?
Answer: inconclusive: 29.1 µM [cytotoxic, single point]

Question: For `COc1ccccc1NS(=O)(=O)c1cc(NC(=O)c2ccccc2F)ccc1N1CCOCC1`, which “activity change, negative = cytotoxic” value is on record?
Answer: inactive: -8.31%

Question: With `Cc1cccc(NC(=O)c2ccc(C3SCC(=O)N3CCc3ccccc3)cc2)c1` (configuration not stated) as the compound, how does the Potency read?
Answer: inconclusive: 18.4 µM [cytotoxic, single point]

Question: With `O=C(c1ccc(S(=O)(=O)Nc2ccccc2)cc1)N1CCOCC1` as the compound, how does the Potency read?
Answer: inconclusive: 23.1 µM [cytotoxic, partial curve, poor fit]

Question: Which Potency does the source give for `C=CCn1c(Sc2ccccc2)nc2c1c(=O)[nH]c(=O)n2C` here?
Answer: active: 7.31 µM

Question: Which Potency does the source give for `Cc1cc(NC(=O)CSc2n[nH]c(-c3cccs3)n2)no1` here?
Answer: inconclusive: 18.4 µM [cytotoxic, single point]

Question: For `O=C(Nc1ccc2c(c1)CCCN2C(=O)c1cccs1)c1c(F)cccc1Cl`, which Potency is on record?
Answer: inconclusive: 20.6 µM [cytotoxic, single point]

Question: With `CCCCNC(=S)Nc1ccccc1Cc1ccccc1` as the compound, how does the Potency read?
Answer: inconclusive: 23.1 µM [cytotoxic, partial curve]

Question: For `Cc1ccc(S(=O)(=O)N[C@H](C(=O)OCC(=O)N2N=C(c3ccc(Cl)cc3)CC2c2ccco2)C(C)C)cc1` (some centres not stated), which Potency is on record?
Answer: inconclusive: 18.4 µM [cytotoxic, single point]

Question: For `O=C1NC[C@H](Cc2ccccc2)N(C[C@@H]2CCCN2C[C@H](Cc2ccccc2)N2C[C@H](Cc3ccc(O)cc3)N(CCc3ccccc3)C(=O)C2=O)C1=O`, which Potency is on record?
Answer: inconclusive: 18.4 µM [cytotoxic, single point]

Question: For `O=C(N/N=C/c1cc([N+](=O)[O-])ccc1O)Nc1ccccc1`, which Potency is on record?
Answer: inconclusive: 29.1 µM [cytotoxic, single point]

Question: For `CC[n+]1c2ccccc2cc2ccccc21`, which Potency is on record?
Answer: inconclusive: 2.06 µM [rising, full curve, poor fit]

Question: For `O=C(COc1ccccc1Cc1ccccc1)Nc1cccc(S(=O)(=O)N2CCOCC2)c1`, which Potency is on record?
Answer: inconclusive: 29.1 µM [cytotoxic, single point]

Question: Which Potency does the source give for `CCOC(=O)N1CCC(NC(=O)c2cnn3c(C(F)(F)F)cc(-c4cccc(OC)c4)nc23)CC1` here?
Answer: inconclusive: 29.1 µM [cytotoxic, single point]

Question: With `CC1CC(C)(C)NC(=S)N1CCC(=O)N1CCN(c2ccccc2)CC1` (configuration not stated) as the compound, how does the “activity change, negative = cytotoxic” value read?
Answer: inactive: 23.1%

Question: With `CN(C)S(=O)(=O)c1ccc(C(=O)NCCSc2c(-c3ccccc3)[nH]c3ccccc23)cc1` as the compound, how does the Potency read?
Answer: inconclusive: 29.1 µM [cytotoxic, single point]

Question: With `COc1ccc(NC(=O)COC(=O)c2ccc(C)c(S(=O)(=O)N3CCCCC3)c2)cc1` as the compound, how does the activity change, negative = cytotoxic read?
Answer: inconclusive: -22.5%

Question: Which “activity change, negative = cytotoxic” value does the source give for `Fc1cccc(-c2nnn3c2nc(NC2CCCCC2)c2ccccc23)c1` here?
Answer: inactive: 2.67%

Question: Which Potency does the source give for `CCNC(=S)/N=C(\N)Nc1nc(C)c2cc(C)ccc2n1` here?
Answer: inconclusive: 14.6 µM [cytotoxic, partial curve]

Question: Which Potency does the source give for `Cc1onc(C(=O)NN)c1-c1csc(COc2ccc(Cl)cc2)n1` here?
Answer: inconclusive: 18.4 µM [cytotoxic, single point]

Question: With `CC(=O)C1CCC2C3CC=C4CC(SC(=N)N)CCC4(C)C3CCC12C` (configuration not stated) as the compound, how does the Potency read?
Answer: inconclusive: 29.1 µM [cytotoxic, single point]

Question: Which “activity change, negative = cytotoxic” value does the source give for `N#CC1=C(N)NC(SCC(=O)O)=C(C#N)C12CCCC2` here?
Answer: inactive: -1.45%

Question: With `COc1cc(C(=O)OCC(=O)c2cc(C)n(C)c2C)cc(OC)c1OC` as the compound, how does the Potency read?
Answer: inconclusive: 18.4 µM [cytotoxic, single point]

Question: With `Cc1noc(C)c1S(=O)(=O)N(CC(=O)NCCc1ccccc1)c1ccc(C(C)C)cc1` as the compound, how does the Potency read?
Answer: inactive

Question: For `CCCCNc1cc(F)nc(N)n1`, which “activity change, negative = cytotoxic” value is on record?
Answer: inactive: -1.09%

Question: For `COc1ccc(/C=N/NC(=O)c2cccnc2)cc1COc1ccc([N+](=O)[O-])cc1`, which Potency is on record?
Answer: inconclusive: 16.4 µM [cytotoxic, single point]

Question: For `COc1ccc(Cl)cc1NC(=S)NCCC(c1ccccc1)c1ccccc1`, which Potency is on record?
Answer: inconclusive: 32.6 µM [cytotoxic, single point]

Question: Which Potency does the source give for `Cc1cccc(NS(=O)(=O)c2ccc(C)c(C(=O)NCC(c3ccco3)N3CCCCC3)c2)c1` (configuration not stated) here?
Answer: inconclusive: 14.6 µM [cytotoxic, single point]

Question: For `Cc1ccc(Cl)cc1-n1ncc2c(N3CCN(Cc4ccccc4)CC3)ncnc21`, which Potency is on record?
Answer: inconclusive: 20.6 µM [cytotoxic, single point]

Question: With `CCc1ccc(C(=O)NCC2(c3ccccc3)CCOCC2)o1` as the compound, how does the Potency read?
Answer: inconclusive: 23.1 µM [rising, single point]
